This is an account of results in the supplement of paper PMC5355238.

Structures can show the parent of a compound that is named as a salt. The list shows a part of the results. Most entries show no effect beyond the scatter of the controls.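 Reh, a human leukemia cell line, is read out by flow cytometry as the median γH2AX antibody signal in S-phase cells; the score counts standard deviations from the median difference of each paired plate set. Scores above 2.5 were candidate hits; scores below -2 mark compounds lowering MK1775-induced damage.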

The subject of this experiment is Reh. The experiment in a line: Z' of S-phase gammaH2AX difference (drug + MK1775 minus drug alone) (Z-score); higher = stronger synergistic S-phase DNA damage with MK1775. The note with it: MK1775 concentration 400 nM; first compound 10 µM; 4 h.
On to `C=CCc1cccc(/C=N/NC(=O)CN2CCN(Cc3ccccc3)CC2)c1O` + C=CCn1c(=O)c2cnc(Nc3ccc(N4CCN(C)CC4)cc3)nc2n1-c1cccc(C(C)(C)O)n1 [MK1775], for which the “Z' of S-phase gammaH2AX difference (Z-score)” value is inactive: 2.19.

Consider `O=C(O)C1CCCNC1` (stereo unspecified) [(?)-Nipecotic acid] + C=CCn1c(=O)c2cnc(Nc3ccc(N4CCN(C)CC4)cc3)nc2n1-c1cccc(C(C)(C)O)n1 [MK1775], for which the “Z' of S-phase gammaH2AX difference (Z-score)” value is inactive: 0.12.

As for `CC[N+](CC)(CC)CCOc1ccc(/C=C/c2ccccc2)cc1` + C=CCn1c(=O)c2cnc(Nc3ccc(N4CCN(C)CC4)cc3)nc2n1-c1cccc(C(C)(C)O)n1 [MK1775], the “Z' of S-phase gammaH2AX difference (Z-score)” value was inactive: 0.247.

For `CC(Oc1ccc(Oc2cnc3ccc(Cl)cc3n2)cc1)C(=O)O` (stereo unspecified) + C=CCn1c(=O)c2cnc(Nc3ccc(N4CCN(C)CC4)cc3)nc2n1-c1cccc(C(C)(C)O)n1 [MK1775], the “Z' of S-phase gammaH2AX difference (Z-score)” value is inactive: 2.45.

In the case of `CN(C)C(=O)C(CCN1CCC(O)(c2ccc(Cl)cc2)CC1)(c1ccccc1)c1ccccc1` [Loperamide hydrochloride] + C=CCn1c(=O)c2cnc(Nc3ccc(N4CCN(C)CC4)cc3)nc2n1-c1cccc(C(C)(C)O)n1 [MK1775], the “Z' of S-phase gammaH2AX difference (Z-score)” value was inactive: -1.1.

Regarding `N=C(N)NCCSSCCNC(=N)N` [Guanidinoethyl disulfide dihydrobromide] + C=CCn1c(=O)c2cnc(Nc3ccc(N4CCN(C)CC4)cc3)nc2n1-c1cccc(C(C)(C)O)n1 [MK1775], the “Z' of S-phase gammaH2AX difference (Z-score)” value is inactive: 0.381.

Consider `COc1cc2c(N3CCN(C(=O)Nc4ccc(OC(C)C)cc4)CC3)ncnc2cc1OCCCN1CCCCC1` [Tandutinib (MLN518)] + C=CCn1c(=O)c2cnc(Nc3ccc(N4CCN(C)CC4)cc3)nc2n1-c1cccc(C(C)(C)O)n1 [MK1775], for which the “Z' of S-phase gammaH2AX difference (Z-score)” value was inactive: 0.131.

As to `Cc1cc(O)c2c(c1)C(=O)c1cccc(O)c1C2=O` [Chrysophanic acid (Chrysophanol)] + C=CCn1c(=O)c2cnc(Nc3ccc(N4CCN(C)CC4)cc3)nc2n1-c1cccc(C(C)(C)O)n1 [MK1775], the “Z' of S-phase gammaH2AX difference (Z-score)” value is inactive: -0.254.

Take `NC(N)=NC(N)=Nc1cccc(Cl)c1` [1-(m-Chlorophenyl)-biguanide hydrochloride] + C=CCn1c(=O)c2cnc(Nc3ccc(N4CCN(C)CC4)cc3)nc2n1-c1cccc(C(C)(C)O)n1 [MK1775]: the “Z' of S-phase gammaH2AX difference (Z-score)” value is inactive: 0.882.

As to `COc1cc(C(=O)NC(=S)Nc2cccc(NC(=O)c3ccccc3)c2)cc(OC)c1OC` + C=CCn1c(=O)c2cnc(Nc3ccc(N4CCN(C)CC4)cc3)nc2n1-c1cccc(C(C)(C)O)n1 [MK1775], the “Z' of S-phase gammaH2AX difference (Z-score)” value was inactive: -0.125.

Take `C(=C\c1ccccc1)/CN1CCN(C(c2ccccc2)c2ccccc2)CC1` [Cinnarizine] + C=CCn1c(=O)c2cnc(Nc3ccc(N4CCN(C)CC4)cc3)nc2n1-c1cccc(C(C)(C)O)n1 [MK1775]: the “Z' of S-phase gammaH2AX difference (Z-score)” value was inactive: 0.531.

For `C[C@]1(O)C[C@@H](c2nc(-c3ccc4ccc(-c5ccccc5)nc4c3)c3c(N)nccn32)C1` [Linsitinib (OSI-906)] + C=CCn1c(=O)c2cnc(Nc3ccc(N4CCN(C)CC4)cc3)nc2n1-c1cccc(C(C)(C)O)n1 [MK1775], the “Z' of S-phase gammaH2AX difference (Z-score)” value was inactive: -0.625.

With `O=C(C1CCCCC1)N1CC(=O)N2CCc3ccccc3C2C1` (stereo unspecified) [Praziquantel] + C=CCn1c(=O)c2cnc(Nc3ccc(N4CCN(C)CC4)cc3)nc2n1-c1cccc(C(C)(C)O)n1 [MK1775], the “Z' of S-phase gammaH2AX difference (Z-score)” value is inactive: -0.946.

`O=C(O)c1cc(=O)cc(C(=O)O)[nH]1` [Chelidamic acid] + C=CCn1c(=O)c2cnc(Nc3ccc(N4CCN(C)CC4)cc3)nc2n1-c1cccc(C(C)(C)O)n1 [MK1775]: the “Z' of S-phase gammaH2AX difference (Z-score)” value was inactive: -0.214.

For the compound `CN1CCc2c(cc(O)c(O)c2Cl)C(c2cccc(Cl)c2)C1` (stereo unspecified) + C=CCn1c(=O)c2cnc(Nc3ccc(N4CCN(C)CC4)cc3)nc2n1-c1cccc(C(C)(C)O)n1 [MK1775], the “Z' of S-phase gammaH2AX difference (Z-score)” value is inactive: -1.2.

In the case of `CNC(=O)c1cc(Oc2ccc(NC(=O)Nc3cc(C(C)(C)C)nn3-c3ccc4ncccc4c3)c(F)c2)ccn1` [DCC-2036 (Rebastinib)] + C=CCn1c(=O)c2cnc(Nc3ccc(N4CCN(C)CC4)cc3)nc2n1-c1cccc(C(C)(C)O)n1 [MK1775], the “Z' of S-phase gammaH2AX difference (Z-score)” value was inactive: -0.811.

In the case of `COc1ccc2c(c1)c(CC(=O)O)c(C)n2C(=O)c1ccc(Cl)cc1` [Indomethacin] + C=CCn1c(=O)c2cnc(Nc3ccc(N4CCN(C)CC4)cc3)nc2n1-c1cccc(C(C)(C)O)n1 [MK1775], the “Z' of S-phase gammaH2AX difference (Z-score)” value was inactive: 0.153.

Take `Nc1nc2ccc(OC(F)(F)F)cc2s1` [Riluzole] + C=CCn1c(=O)c2cnc(Nc3ccc(N4CCN(C)CC4)cc3)nc2n1-c1cccc(C(C)(C)O)n1 [MK1775]: the “Z' of S-phase gammaH2AX difference (Z-score)” value is inactive: 0.658.

For `CC(C)C[C@H](NC(=O)[C@H](O)[C@H](N)Cc1ccccc1)C(=O)O` [Epibestatin hydrochloride] + C=CCn1c(=O)c2cnc(Nc3ccc(N4CCN(C)CC4)cc3)nc2n1-c1cccc(C(C)(C)O)n1 [MK1775], the “Z' of S-phase gammaH2AX difference (Z-score)” value was inactive: 0.104.

Turning to `CNC(=O)c1cc(Oc2ccc(NC(=O)Nc3ccc(Cl)c(C(F)(F)F)c3)c(F)c2)ccn1` [Regorafenib (BAY 73-4506)] + C=CCn1c(=O)c2cnc(Nc3ccc(N4CCN(C)CC4)cc3)nc2n1-c1cccc(C(C)(C)O)n1 [MK1775], the “Z' of S-phase gammaH2AX difference (Z-score)” value is inactive: -0.481.

Consider `C/C=C1\C(=O)C[C@H]2[C@@H]3CCC4=CC(=O)CC[C@]4(C)[C@H]3CC[C@]12C` [(Z)-Gugglesterone] + C=CCn1c(=O)c2cnc(Nc3ccc(N4CCN(C)CC4)cc3)nc2n1-c1cccc(C(C)(C)O)n1 [MK1775], for which the “Z' of S-phase gammaH2AX difference (Z-score)” value is inactive: 0.61.

For the compound `COc1ccc2c(c1OC)C(=O)O[C@@H]2[C@H]1c2c(cc3c(c2OC)OCO3)CCN1C` [Noscapine hydrchloride] + C=CCn1c(=O)c2cnc(Nc3ccc(N4CCN(C)CC4)cc3)nc2n1-c1cccc(C(C)(C)O)n1 [MK1775], the “Z' of S-phase gammaH2AX difference (Z-score)” value was inactive: -0.272.

As to `CCCCCCCCCCCCCCCC(=O)OC(CC(=O)O)C[N+](C)(C)C` (racemic) [Palmitoyl-DL-Carnitine chloride] + C=CCn1c(=O)c2cnc(Nc3ccc(N4CCN(C)CC4)cc3)nc2n1-c1cccc(C(C)(C)O)n1 [MK1775], the “Z' of S-phase gammaH2AX difference (Z-score)” value is inactive: -0.471.

Consider `O=C(Nc1ccccc1-c1cn2c(CN3CCNCC3)csc2n1)c1cnc2ccccc2n1` + C=CCn1c(=O)c2cnc(Nc3ccc(N4CCN(C)CC4)cc3)nc2n1-c1cccc(C(C)(C)O)n1 [MK1775], for which the “Z' of S-phase gammaH2AX difference (Z-score)” value was inactive: -0.759.

In the case of `CC1(NC(=O)CBr)CCC(C(C)(C)NCC(O)COc2cccc3[nH]ccc23)CC1` (stereo unspecified) [(?)-Pindobind] + C=CCn1c(=O)c2cnc(Nc3ccc(N4CCN(C)CC4)cc3)nc2n1-c1cccc(C(C)(C)O)n1 [MK1775], the “Z' of S-phase gammaH2AX difference (Z-score)” value was inactive: 0.286.

As for `O=C(CCc1ccc(O)cc1)c1c(O)cc(O)cc1O` [Phloretin (Dihydronaringenin)] + C=CCn1c(=O)c2cnc(Nc3ccc(N4CCN(C)CC4)cc3)nc2n1-c1cccc(C(C)(C)O)n1 [MK1775], the “Z' of S-phase gammaH2AX difference (Z-score)” value was inactive: -0.224.

Regarding `O=C(CCc1ccc(O)cc1)c1c(O)cc(O)cc1O` [Phloretin] + C=CCn1c(=O)c2cnc(Nc3ccc(N4CCN(C)CC4)cc3)nc2n1-c1cccc(C(C)(C)O)n1 [MK1775], the “Z' of S-phase gammaH2AX difference (Z-score)” value was inactive: -1.66.

`CN1CCN(CCCN2c3ccccc3Sc3ccc(C(F)(F)F)cc32)CC1` [Trifluoperazine dihydrochloride] + C=CCn1c(=O)c2cnc(Nc3ccc(N4CCN(C)CC4)cc3)nc2n1-c1cccc(C(C)(C)O)n1 [MK1775]: the “Z' of S-phase gammaH2AX difference (Z-score)” value is inactive: -0.267.

In the case of `CNC[C@H](O)c1ccc(O)c(O)c1` [(-)-Epinephrine bitartrate] + C=CCn1c(=O)c2cnc(Nc3ccc(N4CCN(C)CC4)cc3)nc2n1-c1cccc(C(C)(C)O)n1 [MK1775], the “Z' of S-phase gammaH2AX difference (Z-score)” value was inactive: 0.114.

Turning to `CCc1cc(Nc2nccc(-c3c(-c4ccc(OC)c(C(=O)Nc5c(F)cccc5F)c4)nc4ccccn34)n2)c(OC)cc1N1CCC(N2CCN(S(C)(=O)=O)CC2)CC1` + C=CCn1c(=O)c2cnc(Nc3ccc(N4CCN(C)CC4)cc3)nc2n1-c1cccc(C(C)(C)O)n1 [MK1775], the “Z' of S-phase gammaH2AX difference (Z-score)” value was inactive: 0.254.

As to `Nc1ccn([C@H]2CC[C@@H](CO)O2)c(=O)n1` [2',3'-dideoxycytidine] + C=CCn1c(=O)c2cnc(Nc3ccc(N4CCN(C)CC4)cc3)nc2n1-c1cccc(C(C)(C)O)n1 [MK1775], the “Z' of S-phase gammaH2AX difference (Z-score)” value was inactive: -0.323.

Take `CCCCCCCCCCCCCCC[C@H](O)[C@H](N)CO` (racemic) [DL-erythro-Dihydrosphingosine] + C=CCn1c(=O)c2cnc(Nc3ccc(N4CCN(C)CC4)cc3)nc2n1-c1cccc(C(C)(C)O)n1 [MK1775]: the “Z' of S-phase gammaH2AX difference (Z-score)” value is inactive: -0.751.

In the case of `CN(C)CCOC(C)(c1ccccc1)c1ccccn1` (stereo unspecified) [Doxylamine succinate] + C=CCn1c(=O)c2cnc(Nc3ccc(N4CCN(C)CC4)cc3)nc2n1-c1cccc(C(C)(C)O)n1 [MK1775], the “Z' of S-phase gammaH2AX difference (Z-score)” value was inactive: 0.838.

With `COc1cccc(-c2cc(=O)c3ccccc3o2)c1N` + C=CCn1c(=O)c2cnc(Nc3ccc(N4CCN(C)CC4)cc3)nc2n1-c1cccc(C(C)(C)O)n1 [MK1775], the “Z' of S-phase gammaH2AX difference (Z-score)” value was inactive: -0.116.

In the case of `CC(C)(C#N)c1cc(Cn2cncn2)cc(C(C)(C)C#N)c1` [Anastrozole] + C=CCn1c(=O)c2cnc(Nc3ccc(N4CCN(C)CC4)cc3)nc2n1-c1cccc(C(C)(C)O)n1 [MK1775], the “Z' of S-phase gammaH2AX difference (Z-score)” value is inactive: 0.147.

`COc1cc2nccc(Oc3ccc(NC(=O)Nc4cc(C)on4)c(Cl)c3)c2cc1OC` [Tivozanib (AV-951)] + C=CCn1c(=O)c2cnc(Nc3ccc(N4CCN(C)CC4)cc3)nc2n1-c1cccc(C(C)(C)O)n1 [MK1775]: the “Z' of S-phase gammaH2AX difference (Z-score)” value was inactive: -0.22.
